Results on 42 sequences are retold here after article PMC7819943, “Rice protein-binding microarrays: a tool to detect cis-acting elements near promoter regions in rice”.

By UniProt entry, the sequences of proteins in these tests, tags left out.
UniProt Q0JBA9, entry or part of it: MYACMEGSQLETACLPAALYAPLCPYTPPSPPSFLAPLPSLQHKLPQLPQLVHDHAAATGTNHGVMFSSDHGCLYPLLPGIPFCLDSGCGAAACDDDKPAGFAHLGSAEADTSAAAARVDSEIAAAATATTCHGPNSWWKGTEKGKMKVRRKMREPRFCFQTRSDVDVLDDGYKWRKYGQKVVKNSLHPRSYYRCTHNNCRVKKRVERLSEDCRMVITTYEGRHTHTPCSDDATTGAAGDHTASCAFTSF

Some of the results follow.

The target in this test is OsWRKY34 (Oryza sativa, UniProt Q0JBA9 1-250). Description: protein-binding microarray (RPBM); PBS, 2% BSA, 51.3 ng/ul salmon testes DNA, 50 uM zinc acetate, 200 nM TF, 25 C, 1 h; high values mean tight binding. As to conditions: protein: recombinant; tags: N-terminal polyhistidine and DsRed monomer fusion (pET32a); label: CyDye5-dUTP incorporated in the synthesized complementary strand; 3' TTTTT single-stranded linker to array surface; dsDNA, one strand shown. Put shortly: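 The binding signal is fluorescence intensity per feature, in arbitrary units, read on an Axon 4000B scanner. Polyhistidine- and DsRed-tagged transcription factors (N-terminal fusions) from E. coli BL21-CodonPlus were purified on Ni–NTA and applied at 200 nM for 1 h at 25 °C to a double-stranded, BSA-blocked custom Agilent array in buffer with 50 µM zinc acetate.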
For the sequence “AGGAGCCTTTATTGCTGTTTTTTTTCTCTCTTCCTTGCTCCGGAGTCACCTAGTGCAG”, the binding signal was 11300 fluorescence intensity (a.u.).

As for “GTTGCATTTGCCGCTGCGACACGGACCCCGCCTTAATAACCGGAGTCACCTAGTGCAG”, the binding signal was 9020 fluorescence intensity (a.u.).

Consider “CCGCCGTCTTCGTCCGCATCCGGGTCAAATCAAATCGAGACGGAGTCACCTAGTGCAG”, for which the binding signal was 8540 fluorescence intensity (a.u.).

Take “CTACCCATTTATTTAAGCTTAGACTTTTCTGCTCCTAAACCGGAGTCACCTAGTGCAG”: the binding signal is 10100 fluorescence intensity (a.u.).

Consider “CCCACTGCCTCGCTGCTGACCTCGTGGCTTTGTTGGCCTCCGGAGTCACCTAGTGCAG”, for which the binding signal is 8450 fluorescence intensity (a.u.).

In the case of “GTAGATGTCGGGTGGGATGGTTTCAGGAAAAGAAACATGACGGAGTCACCTAGTGCAG”, the binding signal is 12800 fluorescence intensity (a.u.).

As to “GTACCACCGAGCTTCTCTAACTTCACTGGATCCCAAATTCCGGAGTCACCTAGTGCAG”, the binding signal is 9660 fluorescence intensity (a.u.).

Turning to “GCACGGGTGACCAGTTGTACTCCCCGCTTCACCTGCATCTCGGAGTCACCTAGTGCAG”, the binding signal is 8230 fluorescence intensity (a.u.).

In the case of “CATTCAGCCGACACGCCTCTCTCTCTCTCTCCGCTGCTGCCGGAGTCACCTAGTGCAG”, the binding signal was 9060 fluorescence intensity (a.u.).

As to “ATTGCGAATTTTTTGAATTGCCGAGCTCCGACCACGCCTACGGAGTCACCTAGTGCAG”, the binding signal is 8040 fluorescence intensity (a.u.).

Turning to “CTCTCCTAGTTTCATATTATAAGTTACTTTTATTTTTTTCCGGAGTCACCTAGTGCAG”, the binding signal is 9650 fluorescence intensity (a.u.).

Take “GTTTGTAACGTATTTTAGCTCGCTTTATAACGGGGCAGTTCGGAGTCACCTAGTGCAG”: the binding signal was 8160 fluorescence intensity (a.u.).

Regarding “TCGACCATTCTCGTGTGATTCTTCAAATTTGATCCTGCCACGGAGTCACCTAGTGCAG”, the binding signal was 9950 fluorescence intensity (a.u.).

As to “CTTTTGGCTATGAATTTGGTTTATATTTTGGGACGGAGGGCGGAGTCACCTAGTGCAG”, the binding signal was 9880 fluorescence intensity (a.u.).

Take “ACCACACCGGGTGTCACCTCAAAGTACAGTTTCCTCTTTTCGGAGTCACCTAGTGCAG”: the binding signal was 8560 fluorescence intensity (a.u.).

On to “AGAGGGAGCGTGTGTGCCGTTCGGGTGTGTTCAATTCAGACGGAGTCACCTAGTGCAG”, for which the binding signal was 8460 fluorescence intensity (a.u.).

In the case of “TCTTCCCTCTCAACTCCTCTCTCTCTCTCCTTCGTCGTCTCGGAGTCACCTAGTGCAG”, the binding signal is 8400 fluorescence intensity (a.u.).

For the sequence “TTTGACTGTGTCTTATGATGCTATCTTGATCGATCAGAACCGGAGTCACCTAGTGCAG”, the binding signal is 8440 fluorescence intensity (a.u.).

Consider “CCTGTTACCTGTTTGGCTGACTTGGTCAAACACAACTCACCGGAGTCACCTAGTGCAG”, for which the binding signal was 9460 fluorescence intensity (a.u.).

Take “ACTTATCCTGCAACTGTACCTGCTCTGACACGACCATTCCCGGAGTCACCTAGTGCAG”: the binding signal was 12500 fluorescence intensity (a.u.).

As for “AGAGGGGTGGCCTCACAAATGTGATGTGGTATGTTCCTATCGGAGTCACCTAGTGCAG”, the binding signal was 10200 fluorescence intensity (a.u.).

For “CCCGGCATCTTCCATCTTTTCTCTGTGGACTTTTTTACGTCGGAGTCACCTAGTGCAG”, the binding signal was 11200 fluorescence intensity (a.u.).

Turning to “TGTGGGACAGGATGGTCACTAATTTCCGGTTTTGGTTTTACGGAGTCACCTAGTGCAG”, the binding signal was 8480 fluorescence intensity (a.u.).

For “AATGAGTAACTTTCTGCTTGTGTGTCACTCTACTCTTTGGCGGAGTCACCTAGTGCAG”, the binding signal was 8720 fluorescence intensity (a.u.).

“AGGGGTTAAGATTGTCCCAACTTCAGTGGAGGATGAGAGACGGAGTCACCTAGTGCAG”: the binding signal is 8360 fluorescence intensity (a.u.).

For the sequence “TGTGTCTTGGGCTCCGTGCTGCAGCTGGCTACATATCTGTCGGAGTCACCTAGTGCAG”, the binding signal is 9920 fluorescence intensity (a.u.).

In the case of “AATTACTAAACGATGTATTTTTTTAAAAAAAGTTTCTATACGGAGTCACCTAGTGCAG”, the binding signal is 8570 fluorescence intensity (a.u.).

As for “TTTTTTTTTTGGCTGTAGGGTTTTGAAGTAATGAAGTGAACGGAGTCACCTAGTGCAG”, the binding signal is 8180 fluorescence intensity (a.u.).

For the sequence “TTTTGCAGTGTTGGATGTGTTGGTTTATAGCTTCGTCATACGGAGTCACCTAGTGCAG”, the binding signal is 12900 fluorescence intensity (a.u.).

Take “AACTGTTCCTACTATATGCGCCGTGACAAGTGACTCAAATCGGAGTCACCTAGTGCAG”: the binding signal was 8710 fluorescence intensity (a.u.).

Turning to “TCGCCGTCGTCCTCTTCTTCCCGACGCTTCATATAGTTGCCGGAGTCACCTAGTGCAG”, the binding signal was 8260 fluorescence intensity (a.u.).

As for “TAAAAGTTCTGTCTTGGTCGGAGTGGGGATAGCATTTCTCCGGAGTCACCTAGTGCAG”, the binding signal is 9790 fluorescence intensity (a.u.).

Take “TTTTTGTTTTGACACAGATTCCTTAGCTGTTTGTCATAGCCGGAGTCACCTAGTGCAG”: the binding signal is 8200 fluorescence intensity (a.u.).

Consider “GCTTGTGTTTCTACGATATCCTCGACAACATCTCCATCTACGGAGTCACCTAGTGCAG”, for which the binding signal is 9470 fluorescence intensity (a.u.).

Take “AATTCTTCTTCACATGCTTCTTCGCGTCATGCATAAACACCGGAGTCACCTAGTGCAG”: the binding signal is 9820 fluorescence intensity (a.u.).

“GCCTTTATAACCGGCGCCACCCCTTGCTGCTAAATCTTGACGGAGTCACCTAGTGCAG”: the binding signal was 13400 fluorescence intensity (a.u.).

Take “CTTATCTGTTTTGTGCTGTGGTTCTGATCAAGGTACAGTTCGGAGTCACCTAGTGCAG”: the binding signal is 8530 fluorescence intensity (a.u.).

“CTAATTTCCTCTGTTTCGCAACTACTATATGCTTTGAATACGGAGTCACCTAGTGCAG”: the binding signal was 8760 fluorescence intensity (a.u.).

“CGTCTCTCTCACCTCGCCGCTGCATCATCTCCTGCTCTGCCGGAGTCACCTAGTGCAG”: the binding signal was 8390 fluorescence intensity (a.u.).

For “AAACTGTTCTCCTCCACTTGCCTATCTTATCCTCTCTTATCGGAGTCACCTAGTGCAG”, the binding signal was 8930 fluorescence intensity (a.u.).

“GACCTTTTCTTATACTGTATCATATTTTAGTTGATTATCACGGAGTCACCTAGTGCAG”: the binding signal was 10200 fluorescence intensity (a.u.).

As for “ACCGTTGTACATGTCCTAACAGTTATAATCATACAACAGACGGAGTCACCTAGTGCAG”, the binding signal is 9010 fluorescence intensity (a.u.).
